# Results are given in words; binding and its absence hold for the method and conditions named. For part of these data: Binding calls can cover weak binding; strength is not graded here. For part of these data: In cells and extracts the contact can be indirect.
# What was measured:
# [1] = target: T1, RBP45d (Arabidopsis) (UniProt Q8VXZ9); experiment: two-hybrid; yeast strain AH109; fusions from pDEST22 and pDEST32; transformants selected on SD-Leu-Trp; interactions tested on SD-Trp-Leu-His with or without 5 mM 3-AT
# T1 sequence: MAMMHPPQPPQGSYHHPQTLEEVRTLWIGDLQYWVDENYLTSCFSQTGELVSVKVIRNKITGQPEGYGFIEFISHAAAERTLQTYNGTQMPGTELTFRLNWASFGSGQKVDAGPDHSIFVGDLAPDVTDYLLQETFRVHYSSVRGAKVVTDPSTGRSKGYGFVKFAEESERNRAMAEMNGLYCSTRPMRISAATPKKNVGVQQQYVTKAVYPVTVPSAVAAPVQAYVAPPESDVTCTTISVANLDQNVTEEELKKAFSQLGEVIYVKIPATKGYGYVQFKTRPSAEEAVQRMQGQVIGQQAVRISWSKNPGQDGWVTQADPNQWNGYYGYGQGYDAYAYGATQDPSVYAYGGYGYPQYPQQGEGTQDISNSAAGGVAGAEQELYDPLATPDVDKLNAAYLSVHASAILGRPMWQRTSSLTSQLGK
# [2] = target: T1, RBP45d (Arabidopsis); experiment: split reporter; BiFC in Arabidopsis protoplasts; vectors pE3130 and pE3136; YFP fluorescence
# [3] = target: T2, RBP47b (Arabidopsis) (UniProt Q0WW84); experiment: as above
# T2 sequence: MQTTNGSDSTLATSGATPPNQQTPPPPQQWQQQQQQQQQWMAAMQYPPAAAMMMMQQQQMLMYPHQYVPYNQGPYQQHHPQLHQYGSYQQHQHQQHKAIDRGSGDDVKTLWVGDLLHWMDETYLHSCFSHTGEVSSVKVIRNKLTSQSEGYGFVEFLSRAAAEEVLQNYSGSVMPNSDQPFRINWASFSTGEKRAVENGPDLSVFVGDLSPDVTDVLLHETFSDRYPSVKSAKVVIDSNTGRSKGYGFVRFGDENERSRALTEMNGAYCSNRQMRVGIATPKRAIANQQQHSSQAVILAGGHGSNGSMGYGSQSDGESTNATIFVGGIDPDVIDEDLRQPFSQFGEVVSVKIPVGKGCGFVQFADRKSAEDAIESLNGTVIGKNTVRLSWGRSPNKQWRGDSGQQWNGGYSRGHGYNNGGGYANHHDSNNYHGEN
substance,measurement,setting,value
PRP39a (Arabidopsis),binding,[1],binds
same,binding,[2],binds
same,binding,[3],no binding

# Source: paper PMC9813592, “A genetic screen in Arabidopsis reveals the identical roles for RBP45d and PRP39a in 5’ cryptic splice site selection”
